Assay results reported in PubChem BioAssay AID1347426 (Functional Genomics Laboratory (NCATS/FGL), 2020).
In all, about 31,000 sequences went through this assay and about 1,400 (4.5%) were called active.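 The calls were made as follows: active = median seed-adjusted z-score above 1 or below -1; inactive = the rest.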 This is one part of the list.

test: Novel Modifiers of Survival Motor Neuron (SMN) Protein: Gene Identification via Genome-wide siRNA Screen; settings: HEK293T SMN2-luciferase reporter, siRNA knockdown, 72 h; actives lie on both sides;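 also: luminescence tracks full-length SMN protein made from the SMN2 reporter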
Summary of the method: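 Luciferase signal, proportional to full-length SMN made from an SMN2 cDNA reporter in stable HEK293T cells, was read 72 h after siRNA reverse transfection. Values were expressed as MAD scores after non-targeting-control normalization and log10 conversion; seed analysis flagged off-targets.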

Row | Sequence | median seed-adjusted z-score
1 | GGCUAGAGCUAAGAGUGAATT against NAB1 | inactive: -0.67
2 | GCCUUGAACCUAGGACCAATT against PRAF2 | inactive: -0.326
3 | CUAGAUAUCGUGGACCUCATT against PYDC1 | active: -1.44
4 | AUGUUAGCUUUGAAACAAATT against AMD1 | inactive: -0.211
5 | CCUACUAUCAAGAUUCAAATT against HERC3 | inactive: -0.0884
6 | GCUCGUGGAUUGUUGGGAATT against MFSD8 | inactive: -0.461
7 | GCACUGUCACUAAGCAGAATT against CHEK2 | inactive: 0.585
8 | GCUCUGACUUUGGACCUCATT against KRTAP5-6 | inactive: 0.185
9 | GGACCUCAGACUGAAUCAATT against GABRE | inactive: 0.211
10 | GCUUCUAAAUGUGAGACGATT against GCNT4 | inactive: -0.0629
11 | CGGUGACUAUGAAAGAAAUTT against RASL11B | inactive: 0.507
12 | GGAUACCAGAUGGAUGAAATT against FBLN5 | inactive: -0.0832
13 | AACUGCUGCUCGCAAGGAATT against MLNR | inactive: -0.038
14 | GAUCAACUGUGGAAAUAUUTT against KISS1R | inactive: -0.299
15 | CCUCAGUACCACGCAGAAATT against APOBEC3B | inactive: 0
16 | GCAAGAUCGUGACUUCGGATT against COL17A1 | inactive: 0.252
17 | ACCUCCUCCUGAUCGAUGATT against ZNF524 | inactive: 0.00173
18 | GCUGCACAAUGGUGUGAAATT against MED16 | inactive: -0.6
19 | GAGGUAAUCUGGGUGCACATT against PARK7 | inactive: -0.357
20 | ACAGUGCUUCGAUGACUUUTT against TNFRSF10B | inactive: 0.064
21 | GGACUUUAAUGGAGGAGGUTT against KCNK6 | inactive: -0.199
22 | CGAGCUUUUAUUAACGGAATT against LRP1B | inactive: -0.0589
23 | GUUACAACCAAACAGCAUATT against CD244 | inactive: 0
24 | CAUCGAGCCUUGAAGGGUATT against ANXA3 | inactive: -0.156
25 | CGGUCAUGUUUGCUAUGUATT against ARL6IP2 | inactive: 0.274
26 | GAGAUUAUAUCAUACGAGATT against HCN1 | inactive: -0.107
27 | GGUUACCAGGUUACAAUGATT against OTC | inactive: 0.496

Row | Sequence | median seed-adjusted z-score
28 | CUUAAGAUCCCACACCUCATT against SLC39A4 | inactive: 0.0304
29 | GCUUUCGUCUGGAACCUGATT against ANGPTL1 | inactive: -0.556
30 | GCCUCACAGUUUUUCGAGATT against CALB1 | inactive: 0.191
31 | GUGUAGACAUAGUCUAAAATT against ZNF532 | inactive: -0.0289
32 | AGUUCGGGCUUAUGAAGAATT against TUSC4 | inactive: 0.312
33 | GGACAUCGGCUUUGAAGAUTT against PLA2G15 | inactive: 0
34 | GCUAUCAUCUUGCUCCCGATT against BDP1 | inactive: -0.0359
35 | CAAUCUAUAUAUCCCGAAUTT against LIN7C | inactive: 0.021
36 | CCUCGAGACUAUACGGUUATT against MED26 | active: -1.86
37 | GUAUCCAUGUGCAUUUUAATT against NT5E | inactive: 0.199
38 | CCUACAAGGUGAACCCAGATT against SHMT1 | inactive: 0.179
39 | GGAAAUUUGGAAACCGGAUTT against POMT2 | inactive: -0.614
40 | AGGUCAGGAUCGCAGUGAATT against DAB1 | inactive: 0.307
41 | GGACUACUACAGCGACUAUTT against ZNF598 | inactive: -0.303
42 | GCCCAUUCAGAGAUCCUCATT against STX5 | inactive: 0.108
43 | CAGUACAGGUAUACCCGAATT against CDO1 | inactive: 0.336
44 | GGAUGACUACGGUGAAUUUTT against RNF216 | inactive: -0.246
45 | GGUUGUAGACAUAAUCCAATT against SERPINA9 | inactive: 0.497
46 | CAACCCUUGUCAUCAAACATT against POLE2 | inactive: -0.584
47 | GCAGAAAGGUCUGAACAGATT against SLC22A7 | inactive: -0.387
48 | CAGGGACAUUUGAAGUGCATT against ILF2 | inactive: -0.19
49 | GGAUCCUGCUCAAUAAUGATT against GGTLC1 | inactive: -0.298
50 | GAGCAAUUGAUACCCAAAATT against PFKP | inactive: -0.352
51 | GAAUUGAACCAAGUUUGUATT against BACE2 | inactive: 0.0853
52 | GCAGAGUACCGGAACAAUUTT against KLKB1 | inactive: -0.256
53 | GGACGGGAGUUUAAAAUUATT against APIP | inactive: -0.0945
54 | CACUUACGGUGUGAAAGGATT against SOX5 | inactive: 0.123

An excerpt of these results, as tab-separated lines.
Row	Sequence	median seed-adjusted z-score
28	CUUAAGAUCCCACACCUCATT against SLC39A4	inactive: 0.0304
30	GCCUCACAGUUUUUCGAGATT against CALB1	inactive: 0.191
31	GUGUAGACAUAGUCUAAAATT against ZNF532	inactive: -0.0289
33	GGACAUCGGCUUUGAAGAUTT against PLA2G15	inactive: 0
37	GUAUCCAUGUGCAUUUUAATT against NT5E	inactive: 0.199
38	CCUACAAGGUGAACCCAGATT against SHMT1	inactive: 0.179
39	GGAAAUUUGGAAACCGGAUTT against POMT2	inactive: -0.614
40	AGGUCAGGAUCGCAGUGAATT against DAB1	inactive: 0.307
41	GGACUACUACAGCGACUAUTT against ZNF598	inactive: -0.303
42	GCCCAUUCAGAGAUCCUCATT against STX5	inactive: 0.108
43	CAGUACAGGUAUACCCGAATT against CDO1	inactive: 0.336
45	GGUUGUAGACAUAAUCCAATT against SERPINA9	inactive: 0.497
47	GCAGAAAGGUCUGAACAGATT against SLC22A7	inactive: -0.387
48	CAGGGACAUUUGAAGUGCATT against ILF2	inactive: -0.19
50	GAGCAAUUGAUACCCAAAATT against PFKP	inactive: -0.352
52	GCAGAGUACCGGAACAAUUTT against KLKB1	inactive: -0.256
